Source: PMC8801411
Positions count from the first letter of the chain named. Read-outs that look alike come from different tables or passages of the source. Results are given in words; binding and its absence hold for the method and conditions named. Binding seen in cells or lysates may run through a third protein. Some entries that bind do so weakly or less than the wild type. Where a sequence is shown, tags or fusion partners need not be part of it. Values belong to the molecule of their own block, whether it stands above or below them.

The chains behind the UniProt entries cited, without tags or fusion partners.
UniProt P16649: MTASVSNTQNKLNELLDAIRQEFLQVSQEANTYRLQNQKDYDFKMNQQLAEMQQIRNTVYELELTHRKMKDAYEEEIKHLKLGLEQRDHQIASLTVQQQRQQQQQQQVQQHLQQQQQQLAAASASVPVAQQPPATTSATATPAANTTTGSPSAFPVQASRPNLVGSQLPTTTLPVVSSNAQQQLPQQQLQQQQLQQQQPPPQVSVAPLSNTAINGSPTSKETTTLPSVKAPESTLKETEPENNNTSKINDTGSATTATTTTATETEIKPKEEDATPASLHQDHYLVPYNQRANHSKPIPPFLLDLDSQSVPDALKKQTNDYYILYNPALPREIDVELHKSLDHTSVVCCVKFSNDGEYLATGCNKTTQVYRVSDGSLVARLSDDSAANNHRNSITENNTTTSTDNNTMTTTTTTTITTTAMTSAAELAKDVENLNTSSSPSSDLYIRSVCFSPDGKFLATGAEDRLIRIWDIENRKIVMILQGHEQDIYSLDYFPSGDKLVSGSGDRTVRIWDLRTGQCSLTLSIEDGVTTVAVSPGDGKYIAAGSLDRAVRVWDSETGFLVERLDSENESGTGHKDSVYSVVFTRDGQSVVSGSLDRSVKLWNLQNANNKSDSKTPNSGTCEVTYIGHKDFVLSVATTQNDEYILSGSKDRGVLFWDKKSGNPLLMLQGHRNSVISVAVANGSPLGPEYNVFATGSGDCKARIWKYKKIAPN

Columns and labels:
Assay in all cases: pull-down; GST-Gal80 fusions immobilised on GSH sepharose, incubated with bacterial (E. coli) total protein extracts containing HA3-Cyc8 or HA3-Tup1; washing of intermediary stringency; elution with 10 mM free GSH; SDS-PAGE and blot with anti-HA-peroxidase conjugate; only the target purified
[1] = target: T1, GST-Gal80 aa 81-145 L125A (S. cerevisiae) (UniProt P04387)
T1 sequence: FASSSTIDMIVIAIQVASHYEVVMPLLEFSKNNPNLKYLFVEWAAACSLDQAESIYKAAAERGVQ

[2] = target: T2, GST-Gal80 aa 146-220 (S. cerevisiae) (UniProt P04387)
T2 sequence: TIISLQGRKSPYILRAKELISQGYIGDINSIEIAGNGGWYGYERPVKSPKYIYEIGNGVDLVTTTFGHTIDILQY

[3] = target: T3, GST-Gal80 (full-length) (S. cerevisiae) (UniProt P04387)
T3 sequence: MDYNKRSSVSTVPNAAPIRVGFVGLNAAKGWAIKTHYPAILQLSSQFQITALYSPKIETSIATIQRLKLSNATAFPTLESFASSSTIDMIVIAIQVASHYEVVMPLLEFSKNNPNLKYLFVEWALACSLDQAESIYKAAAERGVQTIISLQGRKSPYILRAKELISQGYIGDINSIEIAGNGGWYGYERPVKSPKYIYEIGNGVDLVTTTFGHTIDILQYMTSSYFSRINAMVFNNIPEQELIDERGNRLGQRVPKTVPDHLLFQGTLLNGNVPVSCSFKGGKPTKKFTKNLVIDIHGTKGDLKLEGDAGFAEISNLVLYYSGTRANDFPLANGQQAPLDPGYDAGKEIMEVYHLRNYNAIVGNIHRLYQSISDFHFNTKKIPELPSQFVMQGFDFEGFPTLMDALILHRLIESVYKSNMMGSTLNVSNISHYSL

[4] = target: T1, GST-Gal80 aa 81-145 L125A (S. cerevisiae); remark: listed apart in the source
[5] = target: T2, GST-Gal80 aa 146-220 (S. cerevisiae); remark: listed apart in the source
[6] = target: T4, GST-Gal80 aa 81-145 V121A (S. cerevisiae) (UniProt P04387)
T4 sequence: T1 sequence with V41A, A45L

[7] = target: T5, GST-Gal80 aa 81-145 K117A (S. cerevisiae) (UniProt P04387)
T5 sequence: T1 sequence with K37A, A45L

[8] = target: T6, GST-Gal80 aa 81-145 (repression-mediating domain, wild-type) (S. cerevisiae) (UniProt P04387)
T6 sequence: T1 sequence with A45L

[9] = target: T7, GST-Gal80 aa 291-435 (S. cerevisiae) (UniProt P04387)
T7 sequence: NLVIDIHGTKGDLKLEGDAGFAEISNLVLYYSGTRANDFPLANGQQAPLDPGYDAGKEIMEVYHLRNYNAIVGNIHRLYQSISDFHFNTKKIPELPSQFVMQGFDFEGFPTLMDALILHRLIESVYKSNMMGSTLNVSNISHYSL

[10] = target: T8, GST-Gal80 aa 81-145 LFV-AAA (pos. 119-121) (S. cerevisiae) (UniProt P04387)
T8 sequence: T1 sequence with L39A, F40A, V41A, A45L

[11] = target: T9, GST-Gal80 aa 81-145 L119A (S. cerevisiae) (UniProt P04387)
T9 sequence: T1 sequence with L39A, A45L

- binding [1]: binds
- binding [2]: binds
- binding [3]: binds
Molecule: HA3-Tup1 (full length) (from UniProt P16649 1-713)

- binding [4]: binds
- binding [5]: binds
- binding [6]: binds
- binding [7]: binds
- binding [8]: binds
- binding [9]: no binding
- binding [10]: binds
- binding [11]: binds
B1: HA3-Cyc8 (aa 1-398, TPR-containing domain) (domain or fragment, UniProt P14922 1-398)
chain: MNPGGEQTIMEQPAQQQQQQQQQQQQQQQQAAVPQQPLDPLTQSTAETWLSIASLAETLGDGDRAAMAYDATLQFNPSSAKALTSLAHLYRSRDMFQRAAELYERALLVNPELSDVWATLGHCYLMLDDLQRAYNAYQQALYHLSNPNVPKLWHGIGILYDRYGSLDYAEEAFAKVLELDPHFEKANEIYFRLGIIYKHQGKWSQALECFRYILPQPPAPLQEWDIWFQLGSVLESMGEWQGAKEAYEHVLAQNQHHAKVLQQLGCLYGMSNVQFYDPQKALDYLLKSLEADPSDATTWYHLGRVHMIRTDYTAAYDAFQQAVNRDSRNPIFWCSIGVLYYQISQYRDALDAYTRAIRLNPYISEVWYDLGTLYETCNNQLSDALDAYKQAARLDVNN
